Test results reported in article PMC6156379.
These are yes or no findings as the source states them, for the method shown. Binding seen in cells or lysates may run through a third protein. Some results given as binding are weak or reduced against the parent protein; the word gives no strength.

The chains behind the UniProt entries cited, without tags or fusion partners. Residues count along the entry.
UniProt P97772, residues 21-1199: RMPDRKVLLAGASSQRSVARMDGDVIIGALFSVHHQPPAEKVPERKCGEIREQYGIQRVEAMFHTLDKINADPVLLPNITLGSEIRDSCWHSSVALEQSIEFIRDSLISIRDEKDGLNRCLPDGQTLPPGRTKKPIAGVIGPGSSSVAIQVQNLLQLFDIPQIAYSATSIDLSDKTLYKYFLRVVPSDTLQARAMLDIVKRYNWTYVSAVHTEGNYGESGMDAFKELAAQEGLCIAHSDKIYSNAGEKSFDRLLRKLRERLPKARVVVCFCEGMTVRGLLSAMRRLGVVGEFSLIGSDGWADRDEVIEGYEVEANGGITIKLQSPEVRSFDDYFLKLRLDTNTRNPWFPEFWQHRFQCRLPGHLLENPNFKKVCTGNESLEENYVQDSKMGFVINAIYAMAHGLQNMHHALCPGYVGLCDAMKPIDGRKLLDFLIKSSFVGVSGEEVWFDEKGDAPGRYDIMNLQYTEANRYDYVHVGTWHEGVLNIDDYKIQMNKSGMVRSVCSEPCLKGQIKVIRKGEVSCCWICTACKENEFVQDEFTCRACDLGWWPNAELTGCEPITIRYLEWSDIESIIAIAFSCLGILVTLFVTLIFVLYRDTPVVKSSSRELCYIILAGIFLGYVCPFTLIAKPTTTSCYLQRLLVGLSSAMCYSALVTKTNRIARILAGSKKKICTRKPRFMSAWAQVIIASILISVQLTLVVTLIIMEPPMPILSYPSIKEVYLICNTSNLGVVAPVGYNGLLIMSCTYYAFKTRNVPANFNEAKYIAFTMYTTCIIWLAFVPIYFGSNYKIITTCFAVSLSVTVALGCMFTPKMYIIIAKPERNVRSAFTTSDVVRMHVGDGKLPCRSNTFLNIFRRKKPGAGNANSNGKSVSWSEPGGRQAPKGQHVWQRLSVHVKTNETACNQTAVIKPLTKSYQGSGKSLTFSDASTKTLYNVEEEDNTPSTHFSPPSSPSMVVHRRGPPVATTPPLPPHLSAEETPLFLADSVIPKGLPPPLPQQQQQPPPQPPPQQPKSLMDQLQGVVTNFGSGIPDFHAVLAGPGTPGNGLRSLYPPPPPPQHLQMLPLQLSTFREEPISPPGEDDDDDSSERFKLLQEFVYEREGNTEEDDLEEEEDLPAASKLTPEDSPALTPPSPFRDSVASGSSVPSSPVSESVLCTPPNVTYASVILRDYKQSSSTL
UniProt P97445: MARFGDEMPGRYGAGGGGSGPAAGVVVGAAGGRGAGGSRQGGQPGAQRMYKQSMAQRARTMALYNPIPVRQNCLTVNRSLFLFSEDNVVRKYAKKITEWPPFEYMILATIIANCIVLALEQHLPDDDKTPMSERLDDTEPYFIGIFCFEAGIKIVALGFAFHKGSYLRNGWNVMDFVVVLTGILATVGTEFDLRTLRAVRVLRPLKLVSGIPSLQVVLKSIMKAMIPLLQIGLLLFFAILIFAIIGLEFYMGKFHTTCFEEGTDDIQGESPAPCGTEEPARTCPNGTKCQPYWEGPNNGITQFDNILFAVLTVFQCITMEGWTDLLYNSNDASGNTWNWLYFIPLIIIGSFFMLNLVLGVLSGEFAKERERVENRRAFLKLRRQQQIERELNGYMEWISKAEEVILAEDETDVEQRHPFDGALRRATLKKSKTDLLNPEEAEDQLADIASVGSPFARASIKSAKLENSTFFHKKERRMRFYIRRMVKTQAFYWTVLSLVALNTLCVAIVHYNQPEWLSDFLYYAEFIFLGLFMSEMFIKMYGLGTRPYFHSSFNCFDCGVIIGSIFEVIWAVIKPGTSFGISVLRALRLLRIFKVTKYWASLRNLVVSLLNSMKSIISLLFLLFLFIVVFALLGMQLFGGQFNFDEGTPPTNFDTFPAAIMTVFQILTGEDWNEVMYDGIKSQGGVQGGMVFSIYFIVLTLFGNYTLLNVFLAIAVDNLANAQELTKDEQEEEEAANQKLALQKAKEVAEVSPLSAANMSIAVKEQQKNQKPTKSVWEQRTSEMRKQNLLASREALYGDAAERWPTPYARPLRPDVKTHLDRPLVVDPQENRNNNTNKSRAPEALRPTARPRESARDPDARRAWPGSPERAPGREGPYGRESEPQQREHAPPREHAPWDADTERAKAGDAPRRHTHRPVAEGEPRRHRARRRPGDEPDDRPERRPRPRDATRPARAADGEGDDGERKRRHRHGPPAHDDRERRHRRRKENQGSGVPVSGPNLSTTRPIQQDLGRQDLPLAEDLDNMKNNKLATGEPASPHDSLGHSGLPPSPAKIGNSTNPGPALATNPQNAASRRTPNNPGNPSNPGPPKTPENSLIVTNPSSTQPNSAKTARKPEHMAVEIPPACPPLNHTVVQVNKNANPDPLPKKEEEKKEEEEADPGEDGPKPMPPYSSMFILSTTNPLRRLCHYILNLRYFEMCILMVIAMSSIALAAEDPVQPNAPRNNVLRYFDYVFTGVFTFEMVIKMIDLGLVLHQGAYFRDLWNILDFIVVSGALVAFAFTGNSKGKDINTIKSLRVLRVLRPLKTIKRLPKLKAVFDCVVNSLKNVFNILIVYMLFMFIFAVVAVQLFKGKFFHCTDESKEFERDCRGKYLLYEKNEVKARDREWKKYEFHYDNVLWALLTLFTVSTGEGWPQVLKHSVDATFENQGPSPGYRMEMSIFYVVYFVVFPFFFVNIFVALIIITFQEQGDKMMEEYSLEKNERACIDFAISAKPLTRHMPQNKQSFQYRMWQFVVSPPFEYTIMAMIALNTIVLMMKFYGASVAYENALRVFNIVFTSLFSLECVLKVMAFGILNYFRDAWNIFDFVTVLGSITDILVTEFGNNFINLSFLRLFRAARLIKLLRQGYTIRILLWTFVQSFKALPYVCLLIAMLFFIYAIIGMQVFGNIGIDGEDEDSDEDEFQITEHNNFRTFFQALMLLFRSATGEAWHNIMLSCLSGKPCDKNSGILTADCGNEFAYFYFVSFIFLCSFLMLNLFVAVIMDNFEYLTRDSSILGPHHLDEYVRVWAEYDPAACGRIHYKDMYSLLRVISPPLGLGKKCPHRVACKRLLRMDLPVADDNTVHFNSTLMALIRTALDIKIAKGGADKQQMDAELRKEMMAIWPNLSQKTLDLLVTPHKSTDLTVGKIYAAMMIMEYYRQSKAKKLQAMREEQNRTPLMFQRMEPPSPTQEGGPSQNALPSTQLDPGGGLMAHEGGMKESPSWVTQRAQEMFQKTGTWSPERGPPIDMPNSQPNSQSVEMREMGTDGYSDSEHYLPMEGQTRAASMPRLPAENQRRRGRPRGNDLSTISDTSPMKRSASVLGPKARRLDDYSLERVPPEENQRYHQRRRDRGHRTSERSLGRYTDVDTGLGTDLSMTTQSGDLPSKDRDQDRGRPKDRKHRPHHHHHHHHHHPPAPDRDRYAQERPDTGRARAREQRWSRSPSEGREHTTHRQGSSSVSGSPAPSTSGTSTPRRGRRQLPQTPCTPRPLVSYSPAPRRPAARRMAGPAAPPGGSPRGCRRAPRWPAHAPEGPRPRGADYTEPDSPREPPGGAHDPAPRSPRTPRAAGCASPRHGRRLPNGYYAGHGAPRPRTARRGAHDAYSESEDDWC

Experiments:
Assay in all cases: co-IP; RIPA-solubilized membrane extracts of adult mouse cerebellum (1 mg/ml) incubated overnight at 0-4°C with anti-Cav2.1, anti-mGlu1α or anti-SK2 antibody (2 μg); immunoprecipitates analysed by SDS-PAGE and immunoblot; control IgG gave no bands
[1] = molecular target: mGlu1α receptor (mouse (endogenous in cerebellum)) (UniProt P97772)
[2] = molecular target: small-conductance, Ca2+-activated K+ (SK) channel subtype SK2 (mouse (endogenous in cerebellum)) (UniProt P58390)
[3] = molecular target: CaV2.1 channel (mouse (endogenous in cerebellum)) (UniProt P97445)

binding [1] | binding [2] | binding [3] | Substance
binds weakly | binds | – | CaV2.1 channel (from UniProt P97445 1-2368)
– | binds | binds | mGlu1α receptor (from UniProt P97772 21-1199)
binds weakly | – | binds | small-conductance, Ca2+-activated K+ (SK) channel subtype SK2 (from UniProt P58390 1-574)
